This test addresses MBP-tagged MCM9 (human) (UniProt Q9NXL9). Description: mass photometry; protein alone in solution, no DNA; 50-200 nM final protein in 50 mM Tris-HCl pH 7.5, 100 mM NaCl; oligomeric state of MCM8-9 unchanged with ATP-γ-S; both purified.

Chains of the proteins cited; added tags and fusions are not shown.
UniProt Q9NXL9: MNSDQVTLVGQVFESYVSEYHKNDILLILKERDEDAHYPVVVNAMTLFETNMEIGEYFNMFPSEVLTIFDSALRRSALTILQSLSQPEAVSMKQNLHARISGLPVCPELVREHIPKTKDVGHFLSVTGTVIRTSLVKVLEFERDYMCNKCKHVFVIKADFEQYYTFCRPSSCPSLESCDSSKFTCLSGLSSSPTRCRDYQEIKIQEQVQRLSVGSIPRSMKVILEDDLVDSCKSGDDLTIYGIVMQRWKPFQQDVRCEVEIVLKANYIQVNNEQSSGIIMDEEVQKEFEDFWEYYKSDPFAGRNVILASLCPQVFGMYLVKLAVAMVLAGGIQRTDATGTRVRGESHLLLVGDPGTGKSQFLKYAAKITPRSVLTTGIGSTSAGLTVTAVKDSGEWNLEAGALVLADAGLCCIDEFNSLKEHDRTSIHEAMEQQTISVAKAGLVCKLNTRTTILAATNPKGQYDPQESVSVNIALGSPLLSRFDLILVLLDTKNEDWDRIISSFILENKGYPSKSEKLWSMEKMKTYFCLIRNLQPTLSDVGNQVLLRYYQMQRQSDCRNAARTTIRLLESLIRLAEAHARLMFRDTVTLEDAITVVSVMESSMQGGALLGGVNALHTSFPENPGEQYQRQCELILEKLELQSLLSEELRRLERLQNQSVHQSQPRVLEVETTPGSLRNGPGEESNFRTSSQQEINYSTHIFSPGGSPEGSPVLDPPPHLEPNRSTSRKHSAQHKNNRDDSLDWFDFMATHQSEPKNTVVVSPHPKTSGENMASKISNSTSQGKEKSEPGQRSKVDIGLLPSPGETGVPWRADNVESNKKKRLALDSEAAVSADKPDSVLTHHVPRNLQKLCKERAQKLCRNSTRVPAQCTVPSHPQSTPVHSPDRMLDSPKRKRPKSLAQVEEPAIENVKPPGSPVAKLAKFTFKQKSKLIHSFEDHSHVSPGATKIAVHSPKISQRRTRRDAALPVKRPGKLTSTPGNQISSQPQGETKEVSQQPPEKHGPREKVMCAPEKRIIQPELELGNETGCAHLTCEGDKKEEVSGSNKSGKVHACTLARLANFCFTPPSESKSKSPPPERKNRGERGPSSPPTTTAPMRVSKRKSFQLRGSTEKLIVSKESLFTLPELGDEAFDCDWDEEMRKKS

Results are given in words; binding and its absence hold for the method and conditions named.

With “MBP-tagged MCM9 (from UniProt Q9NXL9 1-1143)”, the binding result is “no binding”.

The values above are taken from paper PMC11055865.
